PubChem BioAssay AID652272 | Drosophila RNAi Screening Center | 2013
In all, the deposit lists about 21,000 reagents; shown is an unselected part of those that have a named target and a result. Of all reagents, 503 (2.4%) are marked active. 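Raw plate light values, not normalised; calls rest on replicate z-scores that were not deposited; hits include reporter decreases as well as increases.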 Reagents against one gene are numbered here. A plus sign joins genes that one reagent is predicted to hit. Not given: the amount of reagent, the time to read-out.

Aim: 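Finding fly genes that regulate Hedgehog signal transduction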 (primary screen)
Cells: Drosophila clone 8 (Cl8) cells
Knock-down reagent: long dsRNA against Drosophila genes
Read-out: 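Plate reader light from a firefly reporter under a ptc promoter fragment that responds to Hedgehog, with Renilla light as transfection reference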
Scale: firefly Hh reporter signal: higher = more ptc reporter light; Renilla reference signal: higher = more Renilla control light
Call rule: 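Called a hit if the two-replicate mean z-score lies below -2 or above +3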
Meaning of the calls: active = hit: reporter lowered or raised; inactive = not a hit

| Target gene | reagent | firefly Hh reporter signal, replicate 1 | firefly Hh reporter signal, replicate 2 | firefly Hh reporter signal, replicate 3 | Renilla reference signal, replicate 1 | Renilla reference signal, replicate 2 | Call |
| --- | --- | --- | --- | --- | --- | --- | --- |
| Rm62 (GeneID 40739) | 1 | 1.25e5 | 90533 | – | 2881 | 1861 | active |
| Sry-alpha (GeneID 43571) | 1 | 1.42e5 | 5.54e5 | 77956 | 5140 | 3130 | inactive |
| CG30099 (GeneID 36818) | 1 | 92776 | 57789 | – | 2469 | 4587 | inactive |
| Cpr65Eb (GeneID 38774) | 1 | 54848 | 62954 | – | 5511 | 5203 | inactive |
| CG43069 (GeneID 12798338) | 1 | 89597 | 2.10e5 | – | 2423 | 8928 | inactive |
| CG2909 (GeneID 31958) | 1 | 66108 | 1.43e5 | – | 1190 | 5337 | inactive |
| Rbp4 (GeneID 41668) | 1 | 68338 | 81429 | – | 1514 | 1906 | inactive |
| CG16779 (GeneID 41134) | 1 | 47450 | 1.00e5 | – | 1606 | 2868 | inactive |
| udd (GeneID 35781) | 1 | 78073 | 41339 | – | 1767 | 3280 | inactive |
| Prx2 (GeneID 53578) | 1 | 63472 | 1.89e5 | – | 2544 | 8694 | inactive |
| Cpr65Ax2 + Cpr65Ax1 | 1 | 89820 | 77526 | – | 10323 | 5585 | inactive |
| Cpr65Ax2 + Cpr65Ax1 | 2 | 75776 | 63480 | – | 6947 | 4944 | inactive |
| ms(3)K81 (GeneID 43232) | 1 | 99739 | 1.71e5 | – | 3905 | 4912 | inactive |
| CG12081 (GeneID 31799) | 1 | 84653 | 76021 | – | 1997 | 1968 | inactive |
| Rpt1 (GeneID 35701) | 1 | 42682 | 31648 | – | 2789 | 2109 | inactive |
| CG9961 (GeneID 33459) | 1 | 1.11e5 | 83602 | – | 2486 | 2313 | inactive |
| CG42869 + Sfp93F | 1 | 6.79e5 | 1.23e5 | – | 4315 | 4315 | inactive |
| Pfk (GeneID 36060) | 1 | 59677 | 47668 | – | 3344 | 1779 | inactive |
| CG8850 (GeneID 36331) | 1 | 1.23e5 | 56053 | – | 3543 | 4598 | inactive |
| Cyp9b2 (GeneID 35635) | 1 | 69573 | 43911 | – | 1840 | 4305 | inactive |
| CG3491 (GeneID 34870) | 1 | 72164 | 62038 | – | 1985 | 5363 | inactive |

Already shown: an excerpt of the list.
| Target gene | reagent | firefly Hh reporter signal, replicate 1 | firefly Hh reporter signal, replicate 2 | firefly Hh reporter signal, replicate 3 | Renilla reference signal, replicate 1 | Renilla reference signal, replicate 2 | Call |
| --- | --- | --- | --- | --- | --- | --- | --- |
| Rm62 (GeneID 40739) | 1 | 1.25e5 | 90533 | – | 2881 | 1861 | active |
| Sry-alpha (GeneID 43571) | 1 | 1.42e5 | 5.54e5 | 77956 | 5140 | 3130 | inactive |
| CG30099 (GeneID 36818) | 1 | 92776 | 57789 | – | 2469 | 4587 | inactive |
| Cpr65Eb (GeneID 38774) | 1 | 54848 | 62954 | – | 5511 | 5203 | inactive |
| CG43069 (GeneID 12798338) | 1 | 89597 | 2.10e5 | – | 2423 | 8928 | inactive |
| CG2909 (GeneID 31958) | 1 | 66108 | 1.43e5 | – | 1190 | 5337 | inactive |
| Rbp4 (GeneID 41668) | 1 | 68338 | 81429 | – | 1514 | 1906 | inactive |
| CG16779 (GeneID 41134) | 1 | 47450 | 1.00e5 | – | 1606 | 2868 | inactive |

The listing continues:
| Target gene | reagent | firefly Hh reporter signal, replicate 1 | firefly Hh reporter signal, replicate 2 | firefly Hh reporter signal, replicate 3 | Renilla reference signal, replicate 1 | Renilla reference signal, replicate 2 | Call |
| --- | --- | --- | --- | --- | --- | --- | --- |
| spn-B (GeneID 41746) | 1 | 87456 | 97856 | – | 2621 | 2708 | inactive |
| Ilp1 (GeneID 39149) | 1 | 16935 | 36518 | 44780 | 3282 | 3178 | inactive |
| CG6067 (GeneID 31529) | 1 | 57168 | 1.73e5 | – | 1747 | 6608 | inactive |
| SelT (GeneID 33725) | 1 | 76982 | 45478 | – | 3238 | 1786 | inactive |
| BubR1 (GeneID 35522) | 1 | 77943 | 47716 | – | 1683 | 4858 | inactive |
| Nup214 (GeneID 46091) | 1 | 98352 | 74237 | – | 5209 | 3795 | inactive |
| CG5043 (GeneID 35046) | 1 | 67556 | 52288 | – | 1722 | 4713 | inactive |
| scny (GeneID 38648) | 1 | 70374 | 80585 | – | 3050 | 3480 | inactive |
| scny (GeneID 38648) | 2 | 27634 | 25652 | – | 2934 | 2099 | inactive |
| Drp1 (GeneID 33445) | 1 | 75467 | 64224 | – | 3212 | 2628 | inactive |
| esg (GeneID 34903) | 1 | 87402 | 65888 | – | 3097 | 7037 | inactive |
| Prosbeta7 (GeneID 40639) | 1 | 42176 | 52896 | – | 3437 | 3643 | active |
| CG34195 (GeneID 37018) | 1 | 84102 | 41659 | – | 2357 | 2893 | inactive |
| zda (GeneID 37144) | 1 | 1.29e5 | 1.05e5 | – | 6157 | 4361 | inactive |
| CG1827 (GeneID 35989) | 1 | 44096 | 49869 | – | 2185 | 2018 | inactive |
| CG30495 (GeneID 246651) | 1 | 95776 | 46644 | – | 2339 | 4331 | inactive |
| spas (GeneID 42846) | 1 | 1.20e5 | 61449 | – | 4981 | 2464 | inactive |
| EndoG (GeneID 36309) | 1 | 1.38e5 | 5.93e5 | 93925 | 5397 | 35036 | inactive |
| CG5928 (GeneID 31539) | 1 | 1.08e5 | 5.73e5 | 3.13e5 | 2995 | 4089 | inactive |
| CG4613 (GeneID 39586) | 1 | 85771 | – | – | 3142 | 2587 | inactive |
| CG9300 (GeneID 40128) | 1 | 82473 | 96709 | – | 4765 | 4800 | inactive |
| ND-13A (GeneID 33744) | 1 | 1.56e5 | 79579 | – | 3792 | 6858 | inactive |
| Alp5 (GeneID 42482) | 1 | 1.13e5 | 1.01e5 | – | 4537 | 3876 | inactive |
| Pgant8 (GeneID 39715) | 1 | 1.09e5 | – | – | 4100 | 3011 | inactive |
| RpL19 (GeneID 37995) | 1 | 16352 | 16982 | – | 1200 | 1344 | active |
| CG17746 (GeneID 38400) | 1 | 62432 | 61520 | – | 2925 | 2618 | inactive |
| side-VII (GeneID 41184) | 1 | 1.14e5 | 90885 | – | 5696 | 3952 | inactive |
| Ca-beta (GeneID 34557) | 1 | 1.15e5 | 69493 | – | 3584 | 6024 | inactive |
| Ca-beta (GeneID 34557) | 2 | 1.18e5 | 60902 | – | 3130 | 6061 | inactive |
| Ca-beta (GeneID 34557) | 3 | 1.79e5 | 8.73e5 | 1.12e5 | 4358 | 51111 | inactive |
| uif (GeneID 33983) | 1 | 9.90e5 | 3.07e5 | – | 48697 | 12528 | inactive |
| uif (GeneID 33983) | 2 | 1.65e5 | 89544 | – | 4096 | 8614 | inactive |
| pan (GeneID 43769) | 1 | 61064 | 57457 | – | 1933 | 1894 | inactive |
| Utx (GeneID 34377) | 1 | 1.57e5 | 76744 | – | 3817 | 5307 | inactive |
| inaC (GeneID 36897) | 1 | 85027 | 74290 | – | 3692 | 3209 | inactive |
| CG1486 (GeneID 33108) | 1 | 1.16e5 | 1.06e5 | – | 2914 | 2928 | inactive |
